These are yes or no findings as the source states them, for the method shown. In cells and extracts the contact can be indirect. A result given as binding can be weak or reduced; the word gives no strength. Sequences can lack the tags named with a protein.
Molecular target: T1, Flag-epitope-tagged murine Ras-GRF2 (murine) (UniProt P70392)
T1 sequence (looked up): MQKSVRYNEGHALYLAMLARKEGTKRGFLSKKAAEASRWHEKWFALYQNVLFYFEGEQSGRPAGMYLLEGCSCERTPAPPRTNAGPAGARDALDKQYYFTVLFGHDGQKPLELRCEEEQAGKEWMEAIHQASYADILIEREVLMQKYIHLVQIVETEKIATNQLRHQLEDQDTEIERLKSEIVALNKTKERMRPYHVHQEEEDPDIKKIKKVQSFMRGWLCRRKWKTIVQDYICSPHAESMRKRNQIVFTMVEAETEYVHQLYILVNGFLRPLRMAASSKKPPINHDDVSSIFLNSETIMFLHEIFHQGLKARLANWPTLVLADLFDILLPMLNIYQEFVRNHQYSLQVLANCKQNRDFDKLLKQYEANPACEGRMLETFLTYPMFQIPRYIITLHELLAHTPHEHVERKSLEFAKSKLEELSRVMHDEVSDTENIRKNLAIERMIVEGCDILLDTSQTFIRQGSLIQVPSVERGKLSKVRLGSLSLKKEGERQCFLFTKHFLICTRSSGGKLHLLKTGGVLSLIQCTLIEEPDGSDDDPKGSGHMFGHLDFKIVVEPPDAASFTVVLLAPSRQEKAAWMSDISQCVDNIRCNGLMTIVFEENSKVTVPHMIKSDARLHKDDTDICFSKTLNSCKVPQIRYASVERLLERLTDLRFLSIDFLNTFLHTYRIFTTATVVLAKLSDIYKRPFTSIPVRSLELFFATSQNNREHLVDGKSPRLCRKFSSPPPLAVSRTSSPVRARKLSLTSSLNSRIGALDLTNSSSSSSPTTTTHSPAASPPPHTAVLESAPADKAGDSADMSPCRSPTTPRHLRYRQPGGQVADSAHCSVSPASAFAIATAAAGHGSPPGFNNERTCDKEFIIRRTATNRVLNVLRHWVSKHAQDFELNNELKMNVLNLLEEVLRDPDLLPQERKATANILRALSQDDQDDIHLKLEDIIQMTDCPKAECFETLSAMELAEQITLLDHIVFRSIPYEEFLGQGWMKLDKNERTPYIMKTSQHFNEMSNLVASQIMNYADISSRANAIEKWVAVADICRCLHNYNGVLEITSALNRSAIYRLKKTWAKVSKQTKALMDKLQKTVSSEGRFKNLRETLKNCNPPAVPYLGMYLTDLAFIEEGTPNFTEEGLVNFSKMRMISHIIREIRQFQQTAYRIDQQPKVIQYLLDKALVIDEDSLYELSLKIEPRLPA
Experiment: anti-FLAG co-IP of Flag-GRF2, MS; isolated from cells expressing Ras N17

binding: binds
Substance: H-Ras (GI 4885425) (from UniProt P01112) (enzyme)

— patent US20040170969A1
